For the experiment, the system named is B6D2F1 mice, nontumored toxicity test, survival. As to the kind of experiment: NCI In Vivo Anticancer Drug Screen. Data for tumor model Nontumored Animals (Toxicity Test) in B6D2F1 (BDF1) mice.

This is an account of results in PubChem BioAssay AID186 (DTP/NCI, 2004).

The mice bore no tumour; each value counts animals alive of those treated. Survivors were counted at the toxicity check, usually on the fifth day, unless a day is given; later deaths do not show. Schedules are NCI's codes, taken here to give the interval after Q, in days (D) or hours (H), and the number of doses after X. Some doses were run more than once; the values are given in rising order.

Take `O=P1(NCCCl)OCCCN1CCCl` (stereo not given): the survivor count (dose: 39.0 mg/kg/injection, schedule: Q01DX015 (ip), vehicle: water) is on record as 6 of 6; the survivor count (dose: 65.0 mg/kg/injection, schedule: Q01DX015 (ip), vehicle: water) is given as 6 of 6; the survivor count (dose: 108.0 mg/kg/injection, schedule: Q01DX015 (ip), vehicle: water) is 6 of 6; the survivor count (dose: 108.0 mg/kg/injection, schedule: Q07DX003 (ip), vehicle: water) is 6 of 6; the survivor count (dose: 180.0 mg/kg/injection, schedule: Q01DX001 (ip), vehicle: saline) is recorded as 6 of 6; the survivor count (dose: 180.0 mg/kg/injection, schedule: Q01DX001 (ip), vehicle: water) is 6 of 6 and 8 of 8. Moreover, the survivor count (dose: 180.0 mg/kg/injection, schedule: Q01DX015 (ip), vehicle: water) is recorded as 6 of 6; the survivor count (dose: 180.0 mg/kg/injection, schedule: Q07DX003 (ip), vehicle: water) was 6 of 6; the survivor count (dose: 256.0 mg/kg/injection, schedule: Q01DX001 (sc), vehicle: water) is listed as 6 of 6; the survivor count (dose: 300.0 mg/kg/injection, schedule: Q01DX001 (ip), vehicle: saline) is on record as 6 of 6; the survivor count (dose: 300.0 mg/kg/injection, schedule: Q01DX001 (ip), vehicle: water) was 6 of 6 and 8 of 8; the survivor count (dose: 300.0 mg/kg/injection, schedule: Q07DX003 (ip), vehicle: water) is on record as 6 of 6. For the same compound, the survivor count runs as follows: (dose: 320.0 mg/kg/injection, schedule: Q01DX001 (sc), vehicle: water) 6 of 6; (dose: 400.0 mg/kg/injection, schedule: Q01DX001 (sc), vehicle: water) 6 of 6; (dose: 500.0 mg/kg/injection, schedule: Q01DX001 (ip), vehicle: saline) 2 of 6; (dose: 500.0 mg/kg/injection, schedule: Q01DX001 (ip), vehicle: water) 0 of 8, 4 of 8, 6 of 6; (dose: 500.0 mg/kg/injection, schedule: Q01DX001 (sc), vehicle: water) 6 of 6; (dose: 500.0 mg/kg/injection, schedule: Q07DX003 (ip), vehicle: water) 6 of 6. Moreover, the survivor count by setting is: (dose: 625.0 mg/kg/injection, schedule: Q01DX001 (sc), vehicle: water) 2 of 6; (dose: 833.0 mg/kg/injection, schedule: Q01DX001 (ip), vehicle: saline) 2 of 6; (dose: 833.0 mg/kg/injection, schedule: Q01DX001 (ip), vehicle: water) 0 of 8, 1 of 8, 1 of 6, 2 of 8.

As for `COC1=C(OC)C(=O)C(C/C=C(\C)CC/C=C(\C)CC/C=C(\C)CC/C=C(\C)CC/C=C(\C)CC/C=C(\C)CC/C=C(\C)CC/C=C(\C)CCC=C(C)C)=C(C)C1=O`, the survivor count by setting is: (dose: 5.0 mg/kg/injection, schedule: Q01DX025 (ip), vehicle: saline with Tween-80) 8 of 9 and 10 of 10; (dose: 10.0 mg/kg/injection, schedule: Q01DX025 (ip), vehicle: saline with Tween-80) 10 of 10; (dose: 20.0 mg/kg/injection, schedule: Q01DX025 (ip), vehicle: saline with Tween-80) 10 of 10; (dose: 40.0 mg/kg/injection, schedule: Q01DX025 (ip), vehicle: saline with Tween-80) 8 of 9.

For the compound `COC1=C(N)C(=O)c2nc(-c3nc(C(=O)O)c(C)c(-c4ccc(OC)c(OC)c4O)c3N)ccc2C1=O`, under “dose: 0.02 mg/kg/injection, schedule: Q03HX008 (ip), vehicle: other”, the survivor count is reported as 8 of 8.

Regarding `O=C(O)CN(CCN(CC(=O)O)CC(=O)O)CC(=O)O`, the survivor count runs as follows: (dose: 50.0 mg/kg/injection, schedule: Q01DX001 (ip), vehicle: saline) 10 of 10 and 6 of 6; (dose: 100.0 mg/kg/injection, schedule: Q01DX001 (ip), vehicle: saline) 10 of 10 and 6 of 6; (dose: 200.0 mg/kg/injection, schedule: Q01DX001 (ip), vehicle: saline) 10 of 10 and 6 of 6; (dose: 400.0 mg/kg/injection, schedule: Q01DX001 (ip), vehicle: saline) 10 of 10.

For `Nc1ncnc2c1ncn2C1OC(COP(=O)(O)O)C(O)C1O` (stereo not given), the survivor count reads like this: (dose: 20.0 mg/kg/injection, schedule: Q01DX009 (ip), vehicle: water) 10 of 10; (dose: 40.0 mg/kg/injection, schedule: Q01DX009 (ip), vehicle: water) 10 of 10; (dose: 80.0 mg/kg/injection, schedule: Q01DX009 (ip), vehicle: water) 10 of 10; (dose: 160.0 mg/kg/injection, schedule: Q01DX009 (ip), vehicle: water) 10 of 10; (dose: 320.0 mg/kg/injection, schedule: Q01DX009 (ip), vehicle: water) 10 of 10.
